Reference: PubChem BioAssay AID1671195 (Yale University, 2021)

- Assay: 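Knockdowns that increase or decrease uptake of fluorescent LDL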 (primary screen)
- Cell system: human Huh7 hepatoma cells
- Reagents: siRNA pool against human genes, 18 nM
- Duration: about 2 to 2.5 days of knockdown, then 8 h LDL uptake
- Treatment: DiI-labelled LDL at 30 µg/ml for 8 h, in lipoprotein-deficient serum medium
- Read-out: 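Per-cell DiI-LDL intensity by automated imaging; well means scaled to the plate median and given as a robust z-score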
- Scale: robust z-score: higher = more LDL uptake after knockdown
- Hit rule: 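a gene counts as active if at least two replicate z-scores exceed ±2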
Here is an unselected part of about 22,000 deposited reagents. About 1,510 of all reagents (6.9%) were called active. 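Active includes knockdowns raising or lowering LDL uptake; positive z-scores mean more uptake, negative mean less.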 A number with no mark means an inactive call.

target gene	PubChem SID	robust z-score, replicate 1	robust z-score, replicate 2	robust z-score, replicate 3
TRMT10C (GeneID 54931)	SID442894053	0.0913	-0.608	0.454
RLN1 (GeneID 6013)	SID442894927	-0.375	-0.0819	0.112
ZNF404 (GeneID 342908)	SID442895830	-0.262	-0.149	-0.22
ITGB3 (GeneID 3690)	SID442895231	-0.266	0.0232	-0.201
GUCY2EP (GeneID 390226)	SID442892876	-0.681	0.847	0.178
PTGR2 (GeneID 145482)	SID442903058	-1.18	-1.29	-1.14
FGFR2 (GeneID 2263)	SID442897516	0	-0.479	-0.704
DDX55 (GeneID 57696)	SID442904390	-1.63	-1.61	-1.61
SUMF1 (GeneID 285362)	SID442900062	-0.772	-0.744	-0.604
RPLP1P3 (GeneID 127099)	SID442888001	0.617	0.954	0.828
CARHSP1 (GeneID 23589)	SID442902401	-0.181	-2.14	-0.881
TXNRD1 (GeneID 7296)	SID442901419	-0.875	-0.738	-1.08
EEF1A1P9 (GeneID 441032)	SID442883807	1.14 (active)	2.62	3.13
SNX20 (GeneID 124460)	SID442889998	0.837	0.42	0.173
PIGA (GeneID 5277)	SID442904038	-1.31	-1.52	-1.58
CPEB2 (GeneID 132864)	SID442899926	-0.552	-0.946	-0.564
ARID3A (GeneID 1820)	SID442897725	-1.53	0.0454	0.233
DRAM1 (GeneID 55332)	SID442901143	-0.751	-0.806	-1.01
ITPRID1 (GeneID 223075)	SID442892226	0.201	0.333	0.0503
GIMAP6 (GeneID 474344)	SID442884508	-2.57 (active)	-2.26	-1.96
CFHR3 (GeneID 10878)	SID442898625	-0.467	-0.0873	-1.01
FADS2 (GeneID 9415)	SID442885147	2.24	1.68	1.04
ARPC4 (GeneID 10093)	SID442898860	-0.649	-0.431	-0.562
CA4 (GeneID 762)	SID442904190	-1.55	-1.18	-1.83
MRM2 (GeneID 29960)	SID442891916	0.562	-0.0621	0.19
COL8A1 (GeneID 1295)	SID442887541	2.04	1.14	-0.5
TMPRSS11A (GeneID 339967)	SID442883313	3.43 (active)	2.81	3.67
TMC2 (GeneID 117532)	SID442894939	-0.507	-0.23	0.388

Looked up above.
For “robust z-score, replicate 3”, CPEB2 (GeneID 132864) [SID442899926] is entered as -0.564
Entry for TMC2 (GeneID 117532) [SID442894939] under “robust z-score, replicate 3”: 0.388
Value of TMPRSS11A (GeneID 339967) [SID442883313] under “robust z-score, replicate 2”: 2.81 (active)
